PubChem BioAssay AID686937, Drosophila RNAi Screening Center – 2013
In all, the deposit lists about 23,000 reagents; this is a random part of those with a known target gene and a result. 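Reduced-secretion tags in replicate 1 do not always agree with the z-scores; no criterion for assigning the tags was given.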 A plus sign joins genes that one reagent is predicted to hit. No sequences are given here. Not given: the amount of reagent.

- Assay: 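Genes in the fly needed for secretion of protein constitutively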 (primary screen)
- Cells: Drosophila S2 cells expressing secreted horseradish peroxidase
- Reagents: long dsRNA against Drosophila genes
- Duration: about 5.5 days (5 days dsRNA, then 12 h reporter induction)
- Challenge: reporter expression induced after 5 days of dsRNA, read 12 h later; inducer not stated
- Measured: 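Chemiluminescent measurement of peroxidase in the medium 12 h after reporter induction, following 5 days of dsRNA, given as a z-score per plate; higher means more secretion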
- Reading the numbers: z-score: higher = more reporter secreted into medium

gene,dsRNA,"z-score, replicate 1","z-score, replicate 2"
CG31268,DRSC13203,0.17,0.39
CG17237,DRSC00491,0.06,0.32
Pnn,DRSC16415,0.32,0.54
CG9933,DRSC03276,0.07,0.21
CG15153,DRSC02454,-0.22,0.05
BubR1,DRSC04838,-0.44,-1.42
Dop1R1,DRSC13020,-0.74,0.34
Dop1R1,DRSC13021,0.56,0.48
Dop1R1,DRSC16652,0.65,0.46
Lsd-1,DRSC14236,0.3,0.36
mRpL40,DRSC15749,-0.06,-0.62
wcy,DRSC20132,0.5,0.16
Mlp84B,DRSC12596,0.26,0.35
CG12020,DRSC08226,0.25,0.32
CG8046,DRSC07059,0.39,0.43
Fbxl7,DRSC15553,0.5,0.39
PH4alphaSG2,DRSC15037,0.2,0.22
aurB,DRSC03548,-0.45,-0.48
CG43181,DRSC17559,0.21,0.05
CG9953,DRSC11106,0.33,0.08
CG42232,DRSC15018,0.04,0.03
CG42232,DRSC15019,0.07,0.16
Acf,DRSC14101,0.42,0.61
ReepA,DRSC04572,0.28,0.29
ReepA,DRSC22475,0.5,0.44
Hexo1,DRSC08663,0.15,0.18
Dll,DRSC04610,-0.05,0.12
CG42376 + cin,DRSC18752,0.25,0.25
CG15115,DRSC06537,0.62,0.38
CG30046,DRSC06691,0.37,0.12
lectin-21Ca,DRSC00541,0.27,0.07
CG11550,DRSC14326,0.46,0.3
APC10,DRSC06071,-0.6,-0.44
NKCC,DRSC12140,0.54,0.58
NKCC,DRSC12311,0.1,0.21
CG34029,DRSC03909,0.58,0.29

Part of the list above, reformatted:
ReepA [DRSC04572]
- z-score, replicate 1: 0.28
- z-score, replicate 2: 0.29

ReepA [DRSC22475]
- z-score, replicate 1: 0.5
- z-score, replicate 2: 0.44

Hexo1 [DRSC08663]
- z-score, replicate 1: 0.15
- z-score, replicate 2: 0.18

Dll [DRSC04610]
- z-score, replicate 1: -0.05
- z-score, replicate 2: 0.12

CG42376 + cin [DRSC18752]
- z-score, replicate 1: 0.25
- z-score, replicate 2: 0.25

CG15115 [DRSC06537]
- z-score, replicate 1: 0.62
- z-score, replicate 2: 0.38

CG30046 [DRSC06691]
- z-score, replicate 1: 0.37
- z-score, replicate 2: 0.12

lectin-21Ca [DRSC00541]
- z-score, replicate 1: 0.27
- z-score, replicate 2: 0.07

Next reagents follow:
gene,dsRNA,"z-score, replicate 1","z-score, replicate 2"
nudE,DRSC09000,0.62,0.38
nudE,DRSC10962,0.03,-0.04
CG32202,DRSC09989,0.48,0.36
CG8219,DRSC10971,0.41,0.31
Sugb,DRSC10815,0.1,0.39
CG14416,DRSC18639,0.48,0.48
Cpr49Af,DRSC07202,0.31,0.26
CG8777,DRSC07263,0.28,0.32
promL,DRSC08733,0.23,0.54
eIF4EHP,DRSC13653,0.53,0.52
eIF4EHP,DRSC14265,0.14,0.17
CG17580,DRSC06683,0.52,0.49
zetaTry,DRSC07720,-0.39,-0.54
CG7025,DRSC03002,0.29,0.04
Kyat,DRSC16147,0.13,-0.06
CG13875,DRSC08345,0.09,0.34
Yod1,DRSC10433,0.19,0.4
CG42650,DRSC12462,0.03,0.28
slmo + CG34179,DRSC03143,-0.61,-1.13
CG13457,DRSC10004,0.15,0.06
